{"source": "patent US8435975B2", "about": "“Steroidal esters of 17-oximino-5-androsten-3beta-ol” (Council of Scientific & Industrial Research, priority 2007, dated 2013)", "note": "Some entries share one result that the patent states for a list of compounds.", "data": [{"test_system": "mouse macrophages (Balb C)", "assay": "In vitro cytotoxicity using mouse macrophages (acute toxicity), MTT assay", "format": "cell-based", "conditions": "0.01-5.0 μg/ml", "protocol": "All steroids were dissolved in ethanol and diluted to appropriate concentration: 0.01, 0.5, 1.0, 2.0, 5.0 μg/ml from the two stock solution of 1 mg/ml and […]. Stocks were maintained at room temperature.\n[…] Approximately 1 ml of Phosphate buffer saline preincubated at 37° C. was injected into cavity. The abdomen was lavaged for 10 min and fluid along with macrophages were taken out using a syringe into polypropylene tube. The phosphate solution was spun at 800 rpm for 5-10 min and cells were resuspended in 1 ml RPMI media. Cell number was counted using haemocytometer.\nCells (mouse macrophages) were plated at a density of 5×10^3 cells/well in 96 plate at 37° C. in 5% CO2. Cells were exposed in graded concentration of compounds at designated various concentration. Each concentration was tested in triplicate wells. After 48 hr fresh MTT 20 μl (1 mg/ml) was added directly to all the wells and culture was incubated for 4 hr at 37° C. During this incubation, MTT was converted into a water insoluble formazan complex by metabolic activity of viable cells. Formazan crystal were taken and dissolved in 100 μl of DMSO, which give light pink colour. The absorbance of each well was read on Elisa plate reader (Merck) at 570 nm. The spectrometer was calibrated to zero absorbance using culture medium without cells. The relative cell viability (%) related to control well containing cell culture medium without drug was calculated by [A]test/[A]control×100. % Cell Viability=[A]test/[A]control×100 [A]test=absorbance test sample [A]control=absorbance control sample Results: LC50: Concentration of the Compound in μg/ml (μm), Lethal to 50% Population of Cells.\nThe assay quantifies the viable cells, after […] incubation of cells with five different concentrations.", "values": [{"compound": "C[C@]12CC[C@H](OC(=O)c3ccc(Cl)cc3)CC1=CC[C@@H]1[C@@H]2CC[C@]2(C)C(=NO)CC[C@@H]12", "note": "[Compound 10, 17-oximino-5-androsten-3β-yl 4-chlorobenzoate]", "toxicity to mouse macrophages (in words)": "comparable to finasteride"}, {"compound": "C[C@]12CC[C@H](OC(=O)c3ccc([N+](=O)[O-])cc3)CC1=CC[C@@H]1[C@@H]2CC[C@]2(C)C(=NO)CC[C@@H]12", "note": "[Compound 11, 17-oximino-5-androsten-3β-yl 4-nitrobenzoate]", "toxicity to mouse macrophages (in words)": "comparable to finasteride"}, {"compound": "Cc1ccc(C(=O)O[C@H]2CC[C@@]3(C)C(=CC[C@@H]4[C@@H]3CC[C@]3(C)C(=NO)CC[C@@H]43)C2)cc1", "note": "[Compound 12, 17-oximino-5-androsten-3β-yl 4-methylbenzoate]", "toxicity to mouse macrophages (in words)": "comparable to finasteride"}, {"compound": "C[C@]12CC[C@H](OC(=O)c3ccc(N)cc3)CC1=CC[C@@H]1[C@@H]2CC[C@]2(C)C(=NO)CC[C@@H]12", "note": "[Compound 14, 17-oximino-5-androsten-3β-yl 4-aminobenzoate]", "toxicity to mouse macrophages (in words)": "comparable to finasteride"}, {"compound": "C[C@]12CC[C@H](OC(=O)c3ccc(O)cc3)CC1=CC[C@@H]1[C@@H]2CC[C@]2(C)C(=NO)CC[C@@H]12", "note": "[Compound 15, 17-oximino-5-androsten-3β-yl 4-hydroxybenzoate]", "toxicity to mouse macrophages (in words)": "comparable to finasteride"}]}]}
